Patent US20250122301A1 (IBIO, published 2025)
Results are given in words; binding and its absence hold for the method and conditions named. Some entries that bind do so weakly or less than the wild type.

By UniProt entry, the sequences of proteins in these tests, tags left out. Where a name states a change or a piece, a line headed by the entry shows the natural chain unless it says otherwise. Chains listed by the source or under a name are the forms on record and can include a tag or linker. Residues count along the entry.
recombinant cynomolgus monkey (cyno) CD25 (H6WS54, form named): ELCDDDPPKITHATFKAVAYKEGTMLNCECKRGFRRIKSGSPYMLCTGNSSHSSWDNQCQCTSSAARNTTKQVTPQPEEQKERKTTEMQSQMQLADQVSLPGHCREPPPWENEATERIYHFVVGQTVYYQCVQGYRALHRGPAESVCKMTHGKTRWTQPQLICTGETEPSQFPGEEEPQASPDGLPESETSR
UniProt P01589: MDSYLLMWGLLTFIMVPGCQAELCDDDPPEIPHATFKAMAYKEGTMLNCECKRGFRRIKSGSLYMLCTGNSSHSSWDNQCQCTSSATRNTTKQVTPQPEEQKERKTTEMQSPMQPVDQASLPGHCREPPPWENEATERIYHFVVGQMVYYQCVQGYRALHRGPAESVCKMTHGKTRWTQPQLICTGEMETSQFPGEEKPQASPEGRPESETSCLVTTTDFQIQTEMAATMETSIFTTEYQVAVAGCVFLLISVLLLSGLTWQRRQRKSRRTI
CD25 on CD25+ cells (SUDHL-1, HEK IL-2 reporter cells, primary human regulatory T cells): residues 22-272 of P01589
full-length CD25 (human CD25, recombinant protein used on biosensors): residues 22-213 of P01589

Tests used:
[1] = target: recombinant cynomolgus monkey (cyno) CD25 (cynomolgus monkey) (UniProt H6WS54); assay: ELISA on coated recombinant cyno CD25, OD450
[2] = target: CD25 on CD25+ cells (SUDHL-1, HEK IL-2 reporter cells, primary human regulatory T cells) (human) (UniProt P01589); assay: flow cytometry, SUDHL-1 and HEK IL-2 reporter cells
[3] = target: CD25 on CD25+ cells (SUDHL-1, HEK IL-2 reporter cells, primary human regulatory T cells) (human) (UniProt P01589); assay: flow cytometry, 10 ug/mL antibody, HEK IL-2 reporter cells (CD25+)
[4] = target: CD25 on CD25+ cells (SUDHL-1, HEK IL-2 reporter cells, primary human regulatory T cells) (human) (UniProt P01589); assay: flow cytometry, 10 ug/mL antibody, SUDHL-1 cells (CD25+)
[5] = target: full-length CD25 (human CD25, recombinant protein used on biosensors) (human) (UniProt P01589); assay: BLI (Octet RED384): antibody on AR2G sensor, 300 nM full-length CD25, 1:1 fit
[6] = target: full-length CD25 (human CD25, recombinant protein used on biosensors) (human) (UniProt P01589); assay: Octet BLI, IgG1 immobilised on AR2G, 300 nM full-length CD25

Measured: binding

B1: AH05274 (human IgG1 reformatted) (antibody, V domains shown)
VH: QVQLQQSGAELVRPGTSVKISCKASGYTFTNYWLGWIKQRPGHGLEWIGDIYPGGGYTNYNEKFKGKATLTADTSSSTAYMQLSSLTSEDSAVYFCARVTPASWGQGTSLTVSS
VL: DIQMTQSQKFMSTSVGDRVSVTCKASQNVGTNVAWYQQKPGQSPKALIYSASYRYSGVPDRFTGSGSGTDFTLTISNVQSEDLAEYFCQQYNSYPYTFGGGTKLEIK
binds: [1] | [2] | [3] | [4] | [5]

B2: D17 (human IgG1 reformatted) (antibody, V domains shown)
VH: QIQLQQSGAELVRPGTSVKISCKASGYTFTNYWLGWVKQRPGHGLEWIGDIYPGGGYTNYNEKFKGKATLTADTSSSTAYMQLSSLTSEDSAVYFCARVTPASWGQGTTLTVSA
VL: DILLTQSQKFMSTSVGDRVSVTCKASQNVGTNVAWYQQKPGQSPKALIYSASYRYSGVPDRFTGSGSGTDFTLTISNVQSEDLAEYFCQQYNSYPLTFGGGTKLEIK
binds: [6] | [1] | [5]

B3: AH04526 (human IgG1 reformatted) (antibody, V domains shown)
VH: QVQLQQSGAELVRPGTSVKMSCKAAGYTFTNYWIGWVKQRPGHGLEWIGDIHPGGDYSNYNEKFKGKATLTADTSSSTAYMNLSSLTSEDSAIYYCTSRNFAYWGQGTPVTVSS
VL: DTTVTQSQKFMSTSVGDRVSVTCKASQNVGTNVAWYQQKPGQSPKALIYSASYRYSGVPDRFTGSGSGTDFTLTISNVQSEDLAEYFCQQYNSYPYTFGGGTKLEMK
binds: [6] | [5]

B4: AH05259 (human IgG1 reformatted) (antibody, V domains shown)
VH: QVQLQQSGAELVRPGVSVKISCKGSGYTFTDYAMHWVKQSHAKSLEWIGVISTYSGDVSYNQKFKGKATMTVDKSSSTAYMELARLTSEDSAIYYCARGVTFDSWGQGTSLTVSS
VL: DIQMTQTPASLSASVGETVTITCRASENIYSFLEWFQQKQGKSPQLLVYNAKTLAEGVPSRFSVSGSGTQFSLKINSLQPEDFGSYYCQHHYGIPYTFGGGTKLEIK
binds: [6] | [2] | [3] | [4] | [5]

B5: D36 (human IgG1 reformatted) (antibody, V domains shown)
VH: QVQLQQPGAELVRPGVSLKISCKGSGYTFTDYAMHWVRQSHAKSLEWIGVISTYSGDALYNQKFKGKATMTVDKSSSTAYLELARLTSEDSAIYYCARGVTFDYWGQGTTLTVSS
VL: DVVMTQSPASLSASVGETVTITCRASENSYSYLEWYQQKQGKSPQLLVYNAKTLAEGVPSRFSGSGSGTQFSLKINSLQPEDFGTYYCQHHYGTPYTFGGGTKLEMK
binds: [6] | [1] | [5]

B6: AH05286 (human IgG1 reformatted) (antibody, V domains shown)
VH: QVQLKQSGADLMKPGASVKISCKASGYTFSNYWIEWIKQRPGHGLEWIGEILPGSGYTNYNENFKGKATFTADTSSNTTYIQLSSLSSEDSAVYYCARGGTSFVHFDYWGQGTTLTVSS
VL: DIVLTQSPPTLSLSPGERVTLSCKASQDVNTAVAWYQQKPGQAPRLLIYWASTRHTGVPSRFSGSGSGTDFTLTISSLQPEDFATYYCQQHYSSPWTFGGGTKLEIK
binds: [2] | [3] | [4] | [5]

B7: D11 (human IgG1 reformatted) (antibody, V domains shown)
VH: QIQLQQPGAELVRPGVSLKISCKGSGYTFTDYAMHWVRQSHAKSLEWIGVISTYSGDAIYNQKFKGKATMTVDKSSSTAYLELARLTSDDSAIYYCARGVTFDYWGQGTTVTVSS
VL: DIQMTQTTSSLSASLGDRVTITCRASQDISNYLEWYQQKQGKSPQLLVYNAKTLAEGVPSRFSGSGSGTQFSLKINSLQPEDFGSYYCQHHYDTPYTFGGGTKLEIK
binds: [6] | [1] | [5]
